# The other results are listed elsewhere or left out.
# B1: Lb MiSSP8 (Laccaria bicolor) (protein)
# chain: MYFHTLFACATLMLITTAHASPTVINSLDSRKADLNGDVEARHAADWRRDSDWRRDSDWRRDSDWRRDSD
# Tests used:
# Assay in all cases: glycan array binding signal (z-score within array); higher = stronger binding
# Settings in all cases: glycan notation: IUPAC condensed, linker removed
# [1] = molecular target: Fuc(a1-2)Gal(b1-4)GlcNAc(b1-3)Gal(b1-4)GlcNAc(b1-3)Gal(b1-4)GlcNAc
# Outline: (§1)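 Glycan array data came from 3228 arrays in the Consortium for Functional Glycomics database, and only arrays with an available protein sequence were kept. Glycan names were put into IUPAC-condensed notation, and columns mapping to the same glycan were averaged. The binding signal is a within-array Z-score, averaged across arrays of one protein sequence run at different concentrations or buffers and across linkers. A negative Z-score can be read as non-binding.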
# [2] = molecular target: Fuc(a1-2)Gal(b1-4)GlcNAc(b1-3)GalNAc
# Outline: as §1
# [3] = molecular target: Fuc(a1-2)Gal(b1-4)GlcNAc(b1-3)[Fuc(a1-2)Gal(b1-4)GlcNAc(b1-6)]GalNAc
# Outline: as §1
# [4] = molecular target: Fuc(a1-2)Gal(b1-4)GlcNAc(b1-3)[Fuc(a1-3)[Gal(b1-4)]GlcNAc(b1-6)]Gal(b1-4)Glc
# Outline: as §1
# [5] = molecular target: Fuc(a1-2)Gal(b1-4)GlcNAc(b1-6)GalNAc
# Outline: as §1
# [6] = molecular target: Fuc(a1-2)Gal(b1-4)GlcNAc6S
# Outline: as §1
# [7] = molecular target: Fuc(a1-2)Gal(b1-4)[Fuc(a1-3)]GlcNAc
# Outline: as §1
# [8] = molecular target: Fuc(a1-2)Gal(b1-4)[Fuc(a1-3)]GlcNAc(b1-2)Man(a1-3)[Fuc(a1-2)Gal(b1-4)[Fuc(a1-3)]GlcNAc(b1-2)Man(a1-6)]Man(b1-4)GlcNAc(b1-4)[Fuc(a1-6)]GlcNAc
# Outline: as §1
# [9] = molecular target: Fuc(a1-2)Gal(b1-4)[Fuc(a1-3)]GlcNAc(b1-2)[Fuc(a1-2)Gal(b1-4)[Fuc(a1-3)]GlcNAc(b1-4)]Man(a1-3)[Fuc(a1-2)Gal(b1-4)[Fuc(a1-3)]GlcNAc(b1-2)Man(a1-6)]Man(b1-4)GlcNAc(b1-4)GlcNAc
# Outline: as §1
# [10] = molecular target: Fuc(a1-2)Gal(b1-4)[Fuc(a1-3)]GlcNAc(b1-3)Gal(b1-4)[Fuc(a1-3)]GlcNAc
# Outline: as §1
# [11] = molecular target: Fuc(a1-2)Gal(b1-4)[Fuc(a1-3)]GlcNAc(b1-3)Gal(b1-4)[Fuc(a1-3)]GlcNAc(b1-3)Gal(b1-4)[Fuc(a1-3)]GlcNAc
# Outline: as §1
# [12] = molecular target: Fuc(a1-2)Gal(b1-4)[Fuc(a1-3)]GlcNAc(b1-3)GalNAc
# Outline: as §1
# [13] = molecular target: Fuc(a1-2)Gal(b1-4)[Fuc(a1-3)]GlcNAc(b1-3)[Neu5Ac(a2-6)Gal(b1-4)GlcNAc(b1-6)]Gal(b1-4)Glc
# Outline: as §1
# [14] = molecular target: Fuc(a1-2)Gal3S(b1-4)GlcNAc
# Outline: as §1
# [15] = molecular target: Fuc(a1-2)Gal6S(b1-3)GlcNAc
# Outline: as §1
# [16] = molecular target: Fuc(a1-2)Gal6S(b1-3)GlcNAc6S
# Outline: as §1
# Fuc(a1-2)Gal6S(b1-4)Glc = molecular target: Fuc(a1-2)Gal6S(b1-4)Glc
# Outline: as §1
# [17] = molecular target: Fuc(a1-2)Gal6S(b1-4)Glc6S
# Outline: as §1
# Fuc(a1-2)[Gal(a1-3)]Gal = molecular target: Fuc(a1-2)[Gal(a1-3)]Gal
# Outline: as §1
# [18] = molecular target: Fuc(a1-2)[Gal(a1-3)]Gal(b1-3)GalNAc
# Outline: as §1
# [19] = molecular target: Fuc(a1-2)[Gal(a1-3)]Gal(b1-3)GalNAc(b1-3)Gal(a1-4)Gal(b1-4)Glc
# Outline: as §1
# [20] = molecular target: Fuc(a1-2)[Gal(a1-3)]Gal(b1-3)GlcNAc
# Outline: as §1
# [21] = molecular target: Fuc(a1-2)[Gal(a1-3)]Gal(b1-3)GlcNAc(b1-2)Man(a1-3)[Fuc(a1-2)[Gal(a1-3)]Gal(b1-3)GlcNAc(b1-2)Man(a1-6)]Man(b1-4)GlcNAc(b1-4)GlcNAc
# Outline: as §1
# [22] = molecular target: Fuc(a1-2)[Gal(a1-3)]Gal(b1-3)GlcNAc(b1-2)Man(a1-3)[Fuc(a1-2)[Gal(a1-3)]Gal(b1-3)GlcNAc(b1-2)Man(a1-6)]Man(b1-4)GlcNAc(b1-4)[Fuc(a1-6)]GlcNAc
# Outline: as §1
# [23] = molecular target: Fuc(a1-2)[Gal(a1-3)]Gal(b1-3)GlcNAc(b1-3)GalNAc
# Outline: as §1
# [24] = molecular target: Fuc(a1-2)[Gal(a1-3)]Gal(b1-3)GlcNAc(b1-6)GalNAc
# Outline: as §1
# [25] = molecular target: Fuc(a1-2)[Gal(a1-3)]Gal(b1-4)Glc
# Outline: as §1
# [26] = molecular target: Fuc(a1-2)[Gal(a1-3)]Gal(b1-4)GlcNAc
# Outline: as §1
# [27] = molecular target: Fuc(a1-2)[Gal(a1-3)]Gal(b1-4)GlcNAc(b1-2)Man
# Outline: as §1
# [28] = molecular target: Fuc(a1-2)[Gal(a1-3)]Gal(b1-4)GlcNAc(b1-2)Man(a1-3)[Fuc(a1-2)[Gal(a1-3)]Gal(b1-4)GlcNAc(b1-2)Man(a1-6)]Man(b1-4)GlcNAc(b1-4)GlcNAc
# Outline: as §1
binder,measurement,setting,value
B1,glycan array binding signal (z-score),[1],-0.613
same,glycan array binding signal (z-score),[2],0.464
same,glycan array binding signal (z-score),[3],-0.405
same,glycan array binding signal (z-score),[4],0.402
same,glycan array binding signal (z-score),[5],1.09
same,glycan array binding signal (z-score),[6],-0.302
same,glycan array binding signal (z-score),[7],-0.15
same,glycan array binding signal (z-score),[8],1.15
same,glycan array binding signal (z-score),[9],1.27
same,glycan array binding signal (z-score),[10],-0.399
same,glycan array binding signal (z-score),[11],-0.219
same,glycan array binding signal (z-score),[12],0.589
same,glycan array binding signal (z-score),[13],-0.578
same,glycan array binding signal (z-score),[14],-0.364
same,glycan array binding signal (z-score),[15],-0.316
same,glycan array binding signal (z-score),[16],0.941
same,glycan array binding signal (z-score),Fuc(a1-2)Gal6S(b1-4)Glc,-0.723
same,glycan array binding signal (z-score),[17],0.016
same,glycan array binding signal (z-score),Fuc(a1-2)[Gal(a1-3)]Gal,-0.474
same,glycan array binding signal (z-score),[18],0.371
same,glycan array binding signal (z-score),[19],-0.474
same,glycan array binding signal (z-score),[20],-0.499
same,glycan array binding signal (z-score),[21],-0.281
same,glycan array binding signal (z-score),[22],0.098
same,glycan array binding signal (z-score),[23],-0.626
same,glycan array binding signal (z-score),[24],-0.537
same,glycan array binding signal (z-score),[25],-0.357
same,glycan array binding signal (z-score),[26],-0.53
same,glycan array binding signal (z-score),[27],-0.04
same,glycan array binding signal (z-score),[28],-0.157

# Part of the list above, as tab-separated lines:
binder	measurement	setting	value
B1	glycan array binding signal (z-score)	[25]	-0.357
same	glycan array binding signal (z-score)	[26]	-0.53

# Source: the supplement of paper PMC8728848
